Data taken from the supplement of paper PMC10403144.
The list shows a part of the results.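 Rule for the calls: active = mitochondrial OCR inhibition above 30% at 1 uM; inactive = 30% or less.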 Single values are uncertain, as repeats are few or missing.

System: Toxoplasma gondii RH tachyzoites
Assay: inhibition of mitochondrial O2 consumption rate (% inhibition (relative to pre-injection OCR and atovaquone/antimycin A control)); higher = stronger ETC inhibition
Conditions: 1 µM; injection port (sequential injection order): A

Compound | inhibition of mitochondrial O2 consumption rate
Cc1cc(Cl)c(S(=O)(=O)N2CCCC2)cc1OCC(=O)NC1CCCCC1 | inactive: -0.416
O=C(Nc1nc(-c2ccccn2)cs1)C1CC1c1ccccc1F (stereo not drawn) | inactive: -6.45
COc1cc(OC)cc(C(=O)NCC2Cc3cc(Cl)cc(-c4ccncc4)c3O2)c1 (stereo not drawn) | inactive: -9.69
CCCCN(CCCC)c1c(C#N)cc(S(=O)(=O)Nc2ccccc2)cc1C#N | inactive: -9.63
CN(C)CCNC(=O)N1CCCN(c2ncnc3cc(-c4ccccc4)sc23)CC1 | inactive: -12.9
Cc1cccnc1NC(=O)c1cccc(OCc2c(C)noc2C)c1 | inactive: -1.51
Clc1cccc(C(c2ccc(CN3CCNCC3)cc2)n2ccnc2)c1 (stereo not drawn) | inactive: -3.6
CC(C)(C)n1nc(-c2ccccc2)c2c(N)ncnc21 | inactive: -3.44
Cc1nn2c(O)c3c(nc2c1-c1ccc(F)cc1)CCCC3 | inactive: 3.41
COc1cc(-c2cc(-c3ccc(S(C)(=O)=O)cc3)cnc2N)ccc1O | inactive: -5.62
CC1CCCCN1C(=O)NCCc1coc(-c2ccc(F)cc2)n1 (stereo not drawn) | inactive: 2.28
COc1cccc(OCC(=O)c2ccc(Br)cc2)c1 | inactive: 1.6
N#Cc1ccc(-c2cnc(N)c(-c3ccc(C(N)=O)cc3)n2)cc1 | inactive: -6.08
O=C(NCCc1ccccc1)c1cc(-c2cccnc2)cnc1NCC1CC1 | inactive: 3.41
CCOC(=O)NC(=O)c1ccsc1NC(=O)c1nc2ccccc2s1 | inactive: -17.9
Nc1ncnc2[nH]nc(Cc3cccc4ccccc34)c12 | inactive: -9.22
O=C(COc1cccc(F)c1)Nc1nc(-c2ccccn2)cs1 | inactive: 2.76

Same assay, conditions: 1 µM; injection port (sequential injection order): B

Compound | inhibition of mitochondrial O2 consumption rate
COC(=O)c1c(NC(=O)c2cc3ccccc3oc2=O)sc2c1CCN(Cc1ccccc1)C2 | inactive: 5.06
Cc1ccc(NC(=O)c2cc(S(=O)(=O)NC(C)(C)C)ccc2C)nc1 | inactive: 6.3
Cc1ccc2[nH]c3c(NCCN(C)C)ncnc3c2c1 | inactive: 4.81
c1ccc(Oc2ccc(-c3cc(CN4CCOCC4)[nH]n3)cc2)cc1 | inactive: -10.5
Cc1cc(C(=O)Nc2cnn(Cc3ccc(Cl)cc3Cl)c2)no1 | inactive: -3.74
CN1CCCC1CCO[C@](C)(c1ccccc1)c1ccc(Cl)cc1 (stereo partly drawn) | inactive: -7.41
c1ccc2c(c1)CN(CC1CC1)CC1(CCN(Cc3c[nH]c4cnccc34)CC1)O2 | inactive: 0.14
CN1CCN(c2nccc3[nH]c(-c4cccc(F)c4)cc23)CC1 | inactive: -4.59
O=C(NC1CC1)c1ccc(N2CCC(Cc3ccccc3)CC2)nc1 | active: 46.6
OCCc1ccc(Nc2nccc(-c3nnc4ccccn34)n2)cc1 | inactive: -3.21

Same assay, conditions: 1 µM; injection port (sequential injection order): C

Compound | inhibition of mitochondrial O2 consumption rate
Cc1cc(C)c2cc(C(=O)NC3CCCCCCC3)[nH]c2c1 | inactive: -8.22
CC1(COc2ccc(N3CCC(Oc4ccc(OC(F)(F)F)cc4)CC3)cc2)Cn2cc([N+](=O)[O-])nc2O1 (stereo not drawn) | inactive: -16.7
CCc1ccccc1-n1c(C)cn2c3c(=O)n(C(C(=O)OC)C(C)C)c(=O)n(C)c3nc12 (stereo not drawn) | inactive: -7.29
COc1ccc(C(=N)N)cc1-c1cn(-c2ccc(C(=N)N)cc2)nn1 | inactive: -21.9
CC(C)(C)OC(=O)N1CCN(c2cc(-c3ccc(Oc4ccccc4)cc3)n[nH]2)CC1 | inactive: -10.5
Cc1ccc(-c2nc(CN(Cc3ccccn3)C(C)C)cs2)o1 | inactive: -18.2
COc1cc(NC(=O)Cc2nn(C)c(=O)c3ccccc23)ccc1Cl | inactive: -3.01
c1cc(C2=NCCN2)cc(-c2cc(-c3ccc(C4=NCCN4)cc3)no2)c1 | inactive: -21.4
COc1cc(Br)cc2cc(C(=O)Nc3cccc(C(F)(F)F)c3)c(=O)oc12 | inactive: -22.1
CC(C)(C)c1cc(C(=O)N2CCN(c3nccnc3C#N)CC2)n(Cc2ccccc2)n1 | inactive: -22.8
Nc1nccc2ccc(Oc3ccncc3)cc12 | inactive: -36

Reprinted at random: two compounds from above.
Compound | inhibition of mitochondrial O2 consumption rate
COc1cc(Br)cc2cc(C(=O)Nc3cccc(C(F)(F)F)c3)c(=O)oc12 | inactive: -22.1
c1cc(C2=NCCN2)cc(-c2cc(-c3ccc(C4=NCCN4)cc3)no2)c1 | inactive: -21.4
